Source: article PMC4491177, “Co-translational capturing of nascent ribosomal proteins by their dedicated chaperones” (Nature Communications, 2015)
No constants are given. Whether binding was seen depends on the method and setting. Some results given as binding are weak or reduced against the parent protein; the word gives no strength. Sequences can lack the tags named with a protein.

Experiments:
Assay in all cases: two-hybrid; bait fused to the Gal4 DNA-binding domain, prey to the Gal4 activation domain, reporter strain PJ69-4A; HIS3 and ADE2 reporters, plates 3 days at 30 °C
[1] = molecular target: T1, Sqt1.53C (yeast two-hybrid fusion) (S. cerevisiae) (UniProt P35184)
T1 sequence: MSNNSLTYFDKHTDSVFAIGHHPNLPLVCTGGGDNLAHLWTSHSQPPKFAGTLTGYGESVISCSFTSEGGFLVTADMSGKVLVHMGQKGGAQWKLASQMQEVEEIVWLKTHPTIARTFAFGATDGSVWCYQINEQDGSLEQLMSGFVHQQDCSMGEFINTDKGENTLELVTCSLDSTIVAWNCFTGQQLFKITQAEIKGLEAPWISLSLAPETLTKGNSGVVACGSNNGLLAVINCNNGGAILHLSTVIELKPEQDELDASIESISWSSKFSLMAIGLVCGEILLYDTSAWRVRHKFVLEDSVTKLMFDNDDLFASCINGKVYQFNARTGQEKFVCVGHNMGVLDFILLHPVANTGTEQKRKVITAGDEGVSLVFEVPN

[2] = molecular target: T2, Sqt1 E315A (yeast two-hybrid fusion) (S. cerevisiae) (UniProt P35184)
T2 sequence: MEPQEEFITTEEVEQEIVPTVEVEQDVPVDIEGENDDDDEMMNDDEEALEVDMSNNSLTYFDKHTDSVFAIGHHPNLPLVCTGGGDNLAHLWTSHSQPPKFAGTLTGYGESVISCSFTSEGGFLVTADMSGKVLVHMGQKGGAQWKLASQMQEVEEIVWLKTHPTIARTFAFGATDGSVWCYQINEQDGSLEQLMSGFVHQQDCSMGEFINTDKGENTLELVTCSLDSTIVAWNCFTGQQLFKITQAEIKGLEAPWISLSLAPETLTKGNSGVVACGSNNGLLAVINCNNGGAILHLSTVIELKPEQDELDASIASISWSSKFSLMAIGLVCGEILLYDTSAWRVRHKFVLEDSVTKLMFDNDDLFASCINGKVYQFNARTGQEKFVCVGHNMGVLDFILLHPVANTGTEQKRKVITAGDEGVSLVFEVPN

[3] = molecular target: T3, Sqt1 (yeast two-hybrid fusion) (S. cerevisiae) (UniProt P35184)
T3 sequence: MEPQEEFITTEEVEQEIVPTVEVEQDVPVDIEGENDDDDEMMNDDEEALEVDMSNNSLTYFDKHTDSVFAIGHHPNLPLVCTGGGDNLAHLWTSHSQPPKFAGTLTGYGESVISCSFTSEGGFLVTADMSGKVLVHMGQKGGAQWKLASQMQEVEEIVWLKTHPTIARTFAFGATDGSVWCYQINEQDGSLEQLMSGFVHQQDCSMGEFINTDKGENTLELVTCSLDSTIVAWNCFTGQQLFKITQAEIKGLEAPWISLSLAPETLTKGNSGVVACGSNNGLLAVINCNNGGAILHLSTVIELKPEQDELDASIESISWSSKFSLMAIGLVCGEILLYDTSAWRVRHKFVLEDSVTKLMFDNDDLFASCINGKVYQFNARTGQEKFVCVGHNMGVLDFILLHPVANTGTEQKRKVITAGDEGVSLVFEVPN

[4] = molecular target: T4, Sqt1 D420K (yeast two-hybrid fusion) (S. cerevisiae) (UniProt P35184)
T4 sequence: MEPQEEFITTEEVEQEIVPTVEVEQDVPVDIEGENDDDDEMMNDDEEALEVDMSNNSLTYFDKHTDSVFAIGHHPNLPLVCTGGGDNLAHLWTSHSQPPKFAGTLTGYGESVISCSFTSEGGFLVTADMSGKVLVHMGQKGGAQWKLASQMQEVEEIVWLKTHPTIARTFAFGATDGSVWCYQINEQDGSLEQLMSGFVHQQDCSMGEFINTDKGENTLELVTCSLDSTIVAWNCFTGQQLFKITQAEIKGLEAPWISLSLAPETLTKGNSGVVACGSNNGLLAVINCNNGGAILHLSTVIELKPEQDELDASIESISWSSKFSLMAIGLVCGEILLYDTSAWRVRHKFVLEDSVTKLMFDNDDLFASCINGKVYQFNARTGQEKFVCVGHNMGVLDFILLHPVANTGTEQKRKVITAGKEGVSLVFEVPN

[5] = molecular target: T5, Sqt1 Glu315 to lysine (yeast two-hybrid fusion) (S. cerevisiae) (UniProt P35184)
T5 sequence: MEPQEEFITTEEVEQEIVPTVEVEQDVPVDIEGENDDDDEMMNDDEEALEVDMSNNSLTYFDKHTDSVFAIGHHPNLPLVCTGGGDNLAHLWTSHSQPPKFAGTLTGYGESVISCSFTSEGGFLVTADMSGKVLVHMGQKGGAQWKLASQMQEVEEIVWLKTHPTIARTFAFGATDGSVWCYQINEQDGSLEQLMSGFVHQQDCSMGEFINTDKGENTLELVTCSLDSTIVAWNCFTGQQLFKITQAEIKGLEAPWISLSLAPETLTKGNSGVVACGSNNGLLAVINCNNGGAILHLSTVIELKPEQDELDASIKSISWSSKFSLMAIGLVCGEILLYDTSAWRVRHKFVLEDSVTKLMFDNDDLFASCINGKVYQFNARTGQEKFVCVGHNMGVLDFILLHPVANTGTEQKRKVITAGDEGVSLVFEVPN

[6] = molecular target: T6, Sqt1 E156K (yeast two-hybrid fusion) (S. cerevisiae) (UniProt P35184)
T6 sequence: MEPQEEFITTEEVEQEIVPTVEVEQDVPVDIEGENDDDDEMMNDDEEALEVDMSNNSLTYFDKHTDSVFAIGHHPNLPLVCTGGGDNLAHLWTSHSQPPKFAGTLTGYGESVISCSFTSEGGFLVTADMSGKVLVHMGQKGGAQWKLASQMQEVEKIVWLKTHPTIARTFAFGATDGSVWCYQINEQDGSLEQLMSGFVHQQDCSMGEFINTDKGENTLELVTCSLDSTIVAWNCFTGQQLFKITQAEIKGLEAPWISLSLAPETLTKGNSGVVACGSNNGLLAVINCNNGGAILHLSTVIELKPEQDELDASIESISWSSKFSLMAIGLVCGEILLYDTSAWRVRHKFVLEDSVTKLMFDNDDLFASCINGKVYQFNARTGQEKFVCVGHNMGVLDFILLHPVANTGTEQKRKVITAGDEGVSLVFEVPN

[7] = molecular target: T7, Sqt1 E110K (yeast two-hybrid fusion) (S. cerevisiae) (UniProt P35184)
T7 sequence: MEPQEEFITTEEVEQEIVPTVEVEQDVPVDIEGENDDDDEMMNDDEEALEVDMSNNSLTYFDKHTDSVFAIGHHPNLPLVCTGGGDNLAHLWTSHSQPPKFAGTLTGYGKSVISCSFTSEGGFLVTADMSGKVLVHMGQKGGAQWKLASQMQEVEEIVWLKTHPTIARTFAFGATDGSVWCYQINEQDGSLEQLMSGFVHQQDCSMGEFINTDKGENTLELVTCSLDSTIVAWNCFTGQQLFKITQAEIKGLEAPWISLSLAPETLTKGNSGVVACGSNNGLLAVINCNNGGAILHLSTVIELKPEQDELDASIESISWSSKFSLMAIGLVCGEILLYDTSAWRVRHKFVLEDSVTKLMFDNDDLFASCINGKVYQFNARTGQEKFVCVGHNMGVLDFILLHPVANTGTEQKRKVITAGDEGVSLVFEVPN

binding [1]: binds | binding [2]: binds | binding [3]: binds | binding [4]: binds | binding [5]: no binding | binding [6]: binds | binding [7]: binds
B1: Rpl10 (yeast two-hybrid fusion) (protein, UniProt P41805 1-221)
chain: MARRPARCYRYQKNKPYPKSRYNRAVPDSKIRIYDLGKKKATVDEFPLCVHLVSNELEQLSSEALEAARICANKYMTTVSGRDAFHLRVRVHPFHVLRINKMLSCAGADRLQQGMRGAWGKPHGLAARVDIGQIIFSVRTKDSNKDVVVEGLRRARYKFPGQQKIILSKKWGFTNLDRPEYLKKREAGEVKDDGAFVKFLSKKGSLENNIREFPEYFAAQA
